# Measurements reported in the supplement of paper PMC7666118.
# Chains of the proteins cited; added tags and fusions are not shown. Lines headed by an entry give the natural chain unless they say otherwise; changes in a name come on top.
# UniProt Q8TDW0: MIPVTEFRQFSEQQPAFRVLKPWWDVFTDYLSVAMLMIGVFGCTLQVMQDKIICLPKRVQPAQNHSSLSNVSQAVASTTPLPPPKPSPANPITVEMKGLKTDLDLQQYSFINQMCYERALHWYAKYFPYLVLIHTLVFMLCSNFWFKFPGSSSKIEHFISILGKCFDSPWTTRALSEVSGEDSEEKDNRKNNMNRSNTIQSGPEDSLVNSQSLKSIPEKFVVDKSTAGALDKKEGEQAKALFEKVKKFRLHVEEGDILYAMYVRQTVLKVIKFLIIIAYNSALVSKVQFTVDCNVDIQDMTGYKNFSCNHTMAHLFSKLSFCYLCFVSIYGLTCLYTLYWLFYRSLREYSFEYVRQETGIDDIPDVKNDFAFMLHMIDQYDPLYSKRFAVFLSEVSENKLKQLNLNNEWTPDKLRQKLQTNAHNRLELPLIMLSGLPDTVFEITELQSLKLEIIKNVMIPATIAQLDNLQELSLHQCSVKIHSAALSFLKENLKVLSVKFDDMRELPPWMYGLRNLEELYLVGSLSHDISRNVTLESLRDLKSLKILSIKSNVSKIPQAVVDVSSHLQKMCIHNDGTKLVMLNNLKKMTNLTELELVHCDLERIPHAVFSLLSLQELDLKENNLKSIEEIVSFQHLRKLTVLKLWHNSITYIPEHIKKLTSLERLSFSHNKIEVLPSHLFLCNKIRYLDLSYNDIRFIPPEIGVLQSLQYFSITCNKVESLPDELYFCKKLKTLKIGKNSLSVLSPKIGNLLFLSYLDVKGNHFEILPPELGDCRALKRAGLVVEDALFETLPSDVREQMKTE
# UniProt P33992: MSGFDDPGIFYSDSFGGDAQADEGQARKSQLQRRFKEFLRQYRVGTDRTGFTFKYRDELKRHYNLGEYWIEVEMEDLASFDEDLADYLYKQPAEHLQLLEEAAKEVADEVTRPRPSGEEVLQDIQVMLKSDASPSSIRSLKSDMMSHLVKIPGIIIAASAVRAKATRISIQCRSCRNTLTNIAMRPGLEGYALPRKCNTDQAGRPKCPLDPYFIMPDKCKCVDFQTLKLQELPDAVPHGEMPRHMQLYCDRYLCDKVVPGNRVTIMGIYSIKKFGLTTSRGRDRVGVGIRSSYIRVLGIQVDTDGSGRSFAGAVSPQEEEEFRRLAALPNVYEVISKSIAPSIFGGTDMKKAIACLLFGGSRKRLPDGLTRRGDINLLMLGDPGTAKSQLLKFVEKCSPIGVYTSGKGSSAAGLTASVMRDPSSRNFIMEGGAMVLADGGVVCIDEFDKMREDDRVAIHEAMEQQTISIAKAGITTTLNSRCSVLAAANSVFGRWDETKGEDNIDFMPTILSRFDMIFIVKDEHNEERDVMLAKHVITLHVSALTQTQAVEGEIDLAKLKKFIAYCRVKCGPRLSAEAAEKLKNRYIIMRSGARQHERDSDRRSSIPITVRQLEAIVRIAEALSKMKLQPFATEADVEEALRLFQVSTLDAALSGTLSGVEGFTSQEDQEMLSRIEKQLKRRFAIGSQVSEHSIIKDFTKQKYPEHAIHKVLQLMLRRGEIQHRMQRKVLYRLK
# UniProt P07948: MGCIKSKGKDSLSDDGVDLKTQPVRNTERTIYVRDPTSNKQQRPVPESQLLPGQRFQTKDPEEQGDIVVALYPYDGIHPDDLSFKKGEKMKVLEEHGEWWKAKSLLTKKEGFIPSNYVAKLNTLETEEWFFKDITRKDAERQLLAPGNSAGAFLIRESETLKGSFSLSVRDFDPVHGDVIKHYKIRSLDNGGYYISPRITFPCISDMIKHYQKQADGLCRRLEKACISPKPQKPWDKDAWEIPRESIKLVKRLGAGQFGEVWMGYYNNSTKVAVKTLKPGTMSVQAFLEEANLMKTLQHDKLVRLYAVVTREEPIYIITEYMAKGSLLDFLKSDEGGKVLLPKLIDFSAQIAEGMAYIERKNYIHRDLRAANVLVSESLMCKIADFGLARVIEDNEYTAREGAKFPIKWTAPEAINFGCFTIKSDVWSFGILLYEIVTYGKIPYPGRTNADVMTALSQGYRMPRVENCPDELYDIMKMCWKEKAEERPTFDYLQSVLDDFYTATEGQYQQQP
# UniProt Q92918, whole entry, looked up: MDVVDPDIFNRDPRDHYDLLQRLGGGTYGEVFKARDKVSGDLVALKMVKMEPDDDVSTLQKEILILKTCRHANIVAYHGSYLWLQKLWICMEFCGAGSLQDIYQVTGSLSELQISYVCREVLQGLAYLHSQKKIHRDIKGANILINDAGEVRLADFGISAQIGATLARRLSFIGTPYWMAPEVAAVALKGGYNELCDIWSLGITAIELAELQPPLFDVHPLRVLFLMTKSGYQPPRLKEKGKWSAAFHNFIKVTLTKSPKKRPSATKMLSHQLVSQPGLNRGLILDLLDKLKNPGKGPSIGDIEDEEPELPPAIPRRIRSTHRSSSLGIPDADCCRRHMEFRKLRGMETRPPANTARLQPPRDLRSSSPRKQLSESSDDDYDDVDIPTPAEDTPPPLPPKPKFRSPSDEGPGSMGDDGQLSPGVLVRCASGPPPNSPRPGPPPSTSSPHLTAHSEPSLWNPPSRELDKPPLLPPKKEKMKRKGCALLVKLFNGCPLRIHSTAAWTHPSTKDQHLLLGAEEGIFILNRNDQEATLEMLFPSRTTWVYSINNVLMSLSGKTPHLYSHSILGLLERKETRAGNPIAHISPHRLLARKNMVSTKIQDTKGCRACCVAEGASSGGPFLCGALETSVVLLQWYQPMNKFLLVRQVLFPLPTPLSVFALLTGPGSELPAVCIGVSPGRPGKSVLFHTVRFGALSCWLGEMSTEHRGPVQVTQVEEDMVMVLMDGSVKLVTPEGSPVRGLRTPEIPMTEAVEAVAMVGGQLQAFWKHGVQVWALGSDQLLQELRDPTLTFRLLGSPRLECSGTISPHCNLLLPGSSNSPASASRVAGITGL
# UniProt O95372: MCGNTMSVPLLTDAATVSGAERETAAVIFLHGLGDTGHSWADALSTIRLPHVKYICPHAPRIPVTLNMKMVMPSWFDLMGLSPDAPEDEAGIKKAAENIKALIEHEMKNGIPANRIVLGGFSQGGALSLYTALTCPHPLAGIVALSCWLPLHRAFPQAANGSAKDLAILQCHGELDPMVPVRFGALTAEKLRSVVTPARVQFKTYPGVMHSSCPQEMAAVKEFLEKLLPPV
# UniProt Q3SY17: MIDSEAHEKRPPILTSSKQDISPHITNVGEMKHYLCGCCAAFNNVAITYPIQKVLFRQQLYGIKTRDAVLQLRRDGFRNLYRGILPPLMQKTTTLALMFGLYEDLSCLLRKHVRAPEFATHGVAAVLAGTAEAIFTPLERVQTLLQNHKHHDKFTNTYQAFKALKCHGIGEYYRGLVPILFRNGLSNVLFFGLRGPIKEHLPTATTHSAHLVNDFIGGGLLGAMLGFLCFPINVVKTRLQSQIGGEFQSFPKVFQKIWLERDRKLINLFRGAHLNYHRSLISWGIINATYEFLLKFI
# UniProt Q92615, whole entry: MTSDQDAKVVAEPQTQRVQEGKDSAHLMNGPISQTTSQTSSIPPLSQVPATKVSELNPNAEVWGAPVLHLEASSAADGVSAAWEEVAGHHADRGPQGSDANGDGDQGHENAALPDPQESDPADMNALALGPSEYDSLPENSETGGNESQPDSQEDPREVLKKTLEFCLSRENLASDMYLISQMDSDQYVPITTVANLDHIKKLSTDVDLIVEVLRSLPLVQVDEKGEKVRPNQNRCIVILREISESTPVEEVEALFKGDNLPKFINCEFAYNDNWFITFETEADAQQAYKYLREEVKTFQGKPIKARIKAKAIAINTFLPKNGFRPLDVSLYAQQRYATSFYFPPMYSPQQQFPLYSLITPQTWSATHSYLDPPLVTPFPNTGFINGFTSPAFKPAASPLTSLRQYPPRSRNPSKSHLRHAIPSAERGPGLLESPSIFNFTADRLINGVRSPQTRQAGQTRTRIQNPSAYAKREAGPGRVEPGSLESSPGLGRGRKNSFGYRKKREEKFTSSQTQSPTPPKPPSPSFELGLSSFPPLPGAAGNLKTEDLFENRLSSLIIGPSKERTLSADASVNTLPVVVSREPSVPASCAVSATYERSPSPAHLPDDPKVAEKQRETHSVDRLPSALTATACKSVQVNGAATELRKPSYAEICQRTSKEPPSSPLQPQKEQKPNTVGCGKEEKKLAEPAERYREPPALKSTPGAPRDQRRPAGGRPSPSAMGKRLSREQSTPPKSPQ
# UniProt Q13571: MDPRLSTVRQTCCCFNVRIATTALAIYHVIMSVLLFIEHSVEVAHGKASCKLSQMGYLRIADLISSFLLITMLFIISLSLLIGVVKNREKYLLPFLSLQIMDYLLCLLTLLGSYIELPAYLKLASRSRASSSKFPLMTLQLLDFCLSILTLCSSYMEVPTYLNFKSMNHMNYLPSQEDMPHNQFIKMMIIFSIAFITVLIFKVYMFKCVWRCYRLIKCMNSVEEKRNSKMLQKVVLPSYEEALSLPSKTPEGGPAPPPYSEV
# UniProt P45985: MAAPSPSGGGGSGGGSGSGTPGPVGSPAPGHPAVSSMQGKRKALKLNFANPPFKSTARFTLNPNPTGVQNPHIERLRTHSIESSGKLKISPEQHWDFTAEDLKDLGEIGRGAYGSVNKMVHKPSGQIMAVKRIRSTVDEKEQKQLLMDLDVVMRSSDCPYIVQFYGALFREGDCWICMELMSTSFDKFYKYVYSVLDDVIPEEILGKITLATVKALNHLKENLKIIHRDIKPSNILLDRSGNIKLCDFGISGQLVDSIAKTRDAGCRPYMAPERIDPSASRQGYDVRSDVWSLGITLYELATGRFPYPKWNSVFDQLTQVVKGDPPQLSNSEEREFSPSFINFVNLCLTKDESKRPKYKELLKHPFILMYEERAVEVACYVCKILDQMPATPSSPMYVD
# UniProt Q9Y2L9: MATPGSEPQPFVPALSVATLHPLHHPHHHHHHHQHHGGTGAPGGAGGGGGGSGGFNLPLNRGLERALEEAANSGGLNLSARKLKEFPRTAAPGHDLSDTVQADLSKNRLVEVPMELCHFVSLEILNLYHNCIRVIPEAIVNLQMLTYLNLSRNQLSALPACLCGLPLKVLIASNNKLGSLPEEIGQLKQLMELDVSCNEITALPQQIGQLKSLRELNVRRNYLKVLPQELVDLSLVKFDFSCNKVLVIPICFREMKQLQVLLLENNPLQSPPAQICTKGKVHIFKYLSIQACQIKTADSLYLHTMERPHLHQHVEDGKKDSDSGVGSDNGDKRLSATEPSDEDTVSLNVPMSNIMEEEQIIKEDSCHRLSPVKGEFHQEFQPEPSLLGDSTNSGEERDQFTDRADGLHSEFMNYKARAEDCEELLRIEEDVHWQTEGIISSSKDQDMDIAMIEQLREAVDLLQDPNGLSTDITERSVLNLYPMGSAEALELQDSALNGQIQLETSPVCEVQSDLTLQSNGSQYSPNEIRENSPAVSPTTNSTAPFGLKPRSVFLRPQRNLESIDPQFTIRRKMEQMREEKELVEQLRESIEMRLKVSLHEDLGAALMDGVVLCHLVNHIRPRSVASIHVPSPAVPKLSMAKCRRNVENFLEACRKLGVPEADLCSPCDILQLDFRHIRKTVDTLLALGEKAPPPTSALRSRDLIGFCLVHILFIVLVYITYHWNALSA
# UniProt O14733: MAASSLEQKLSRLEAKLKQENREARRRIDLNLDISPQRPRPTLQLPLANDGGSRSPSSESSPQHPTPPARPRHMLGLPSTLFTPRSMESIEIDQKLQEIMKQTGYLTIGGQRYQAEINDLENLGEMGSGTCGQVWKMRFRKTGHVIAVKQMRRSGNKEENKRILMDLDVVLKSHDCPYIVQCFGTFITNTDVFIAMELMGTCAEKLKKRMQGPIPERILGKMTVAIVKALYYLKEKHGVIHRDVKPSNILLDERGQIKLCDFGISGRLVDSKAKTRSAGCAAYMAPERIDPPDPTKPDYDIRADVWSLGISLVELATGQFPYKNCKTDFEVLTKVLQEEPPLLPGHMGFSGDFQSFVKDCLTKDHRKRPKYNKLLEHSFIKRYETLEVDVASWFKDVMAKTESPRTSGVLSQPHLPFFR
# UniProt O95243: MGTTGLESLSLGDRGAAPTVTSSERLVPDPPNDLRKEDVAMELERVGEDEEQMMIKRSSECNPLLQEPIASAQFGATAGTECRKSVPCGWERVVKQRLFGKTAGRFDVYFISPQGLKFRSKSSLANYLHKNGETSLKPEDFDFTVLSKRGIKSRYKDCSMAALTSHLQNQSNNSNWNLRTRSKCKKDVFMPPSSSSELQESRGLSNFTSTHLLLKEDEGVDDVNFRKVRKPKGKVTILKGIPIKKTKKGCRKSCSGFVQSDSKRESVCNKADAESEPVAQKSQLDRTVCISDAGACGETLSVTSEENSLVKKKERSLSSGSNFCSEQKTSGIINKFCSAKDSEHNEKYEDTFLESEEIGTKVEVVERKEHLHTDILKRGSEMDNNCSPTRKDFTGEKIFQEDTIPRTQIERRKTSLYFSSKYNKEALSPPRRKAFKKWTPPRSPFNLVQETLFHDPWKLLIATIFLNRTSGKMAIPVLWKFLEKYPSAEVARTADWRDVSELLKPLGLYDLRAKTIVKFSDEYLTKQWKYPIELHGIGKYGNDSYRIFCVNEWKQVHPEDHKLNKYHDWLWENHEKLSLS
# The other results are listed elsewhere or left out.
# Compound: COc1ccc(Cn2ccc3cc(C)c(C(=O)NO)cc32)cc1
# Experiment: dose-dependent thermal stabilisation call (2D-TPP, DLPTP, 10% FDR) (binary (1 = stabilised)); higher = stabilised by the compound
# Details: system: HL-60 intact cells; concentration range 0.04-10 µM
# Procedure: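 2D thermal proteome profiling in intact HL-60 cells treated with BRD-3811 (0, 0.04, 0.29, 2, 10 uM) for 90 min at 37 C, then heated 3 min at one of 12 temperatures (42-63.9 C). Soluble protein was quantified by TMT10 MS. The value is the DLPTP call of the paper: dose-dependent thermal stabilisation over all temperatures at 10% FDR (F-test of a dose-response against a flat model); one experiment, one call per tested protein.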
row,Target,dose-dependent thermal stabilisation call
1,MAD1L1 (UniProt Q9Y6D9),inactive: 0
2,LRRC8C (UniProt Q8TDW0),inactive: 0
3,LRP6 (UniProt O75581),inactive: 0
4,MAD2L1 (UniProt Q13257),inactive: 0
5,MCM5 (UniProt P33992),inactive: 0
6,MARCH6 (UniProt O60337),inactive: 0
7,MALT1 (UniProt Q9UDY8),inactive: 0
8,LOC26010,inactive: 0
9,LYN (UniProt P07948),inactive: 0
10,LOC153364,inactive: 0
11,MAML1 (UniProt Q92585),inactive: 0
12,MAP4K1 (UniProt Q92918),inactive: 0
13,LYPLA2 (UniProt O95372),inactive: 0
14,MCART2 (UniProt Q3SY17),inactive: 0
15,LOC100130932,inactive: 0
16,LZTR1 (UniProt Q8N653),inactive: 0
17,LARP5 (UniProt Q92615),inactive: 0
18,LYSMD2 (UniProt Q8IV50),inactive: 0

row,Target,dose-dependent thermal stabilisation call
1,MAP2K1 (UniProt Q02750),inactive: 0
2,LOC729148,inactive: 0
3,LAPTM5 (UniProt Q13571),inactive: 0
4,MAGMAS (UniProt Q9Y3D7),inactive: 0
5,MAP2K4 (UniProt P45985),inactive: 0
6,LEMD3 (UniProt Q9Y2U8),inactive: 0
7,ME1 (UniProt P48163),inactive: 0
8,LRCH1 (UniProt Q9Y2L9),inactive: 0
9,LTF (UniProt P02788),inactive: 0
10,LRRC40 (UniProt Q9H9A6),inactive: 0
11,LAT2 (UniProt Q9GZY6),inactive: 0
12,MAP2K7 (UniProt O14733),inactive: 0
13,LPCAT3 (UniProt Q6P1A2),inactive: 0
14,MBD4 (UniProt O95243),inactive: 0
15,LYPLA1 (UniProt O75608),inactive: 0
16,LLGL1 (UniProt Q15334),inactive: 0
17,MATK (UniProt P42679),inactive: 0
18,LOC100129086,inactive: 0

# Individual results from above.
# ME1 (UniProt P48163) | dose-dependent thermal stabilisation call: inactive: 0
# LLGL1 (UniProt Q15334) | dose-dependent thermal stabilisation call: inactive: 0
